Taken from: PubChem BioAssay AID1259424 (University of Nebraska Medical Center, 2018)
Shown is one part, drawn at random, of about 14,000 reagents tested. 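Higher correlation or smaller distance means closer resemblance to KSR1 loss; control wells, including KSR1 knockdowns, recur on many plates.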 Further read-outs or replicates are left out here. No sequences are given here. Not given: the time to read-out.

Test: 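Rank knockdowns across the genome by resemblance to the KSR1 depletion profile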 (primary screen)
Cells: human HCT116 colon cancer cells
Reagents: siRNA pool against human genes, 50 nM
Measured: 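Log2 levels of six mRNAs (branched-DNA multiplex), adjusted by two reference genes and the non-targeting median, then scored against the average KSR1 knockdown pattern as Pearson r and euclidean distance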
Reading the numbers: mean correlation with KSR1 profile: higher = expression change more like KSR1 knockdown; mean distance from KSR1 profile: higher = expression change less like KSR1 knockdown

With knock-down of AQR (aquarius intron-binding spliceosomal factor), the screen gave mean correlation with KSR1 profile -0.524; mean distance from KSR1 profile 1.42.
For UMPS (uridine monophosphate synthetase), the values are mean correlation with KSR1 profile -0.683; mean distance from KSR1 profile 3.13.
For PKN2 (protein kinase N2), the values are mean correlation with KSR1 profile 0.0157; mean distance from KSR1 profile 2.05.
H6PD (hexose-6-phosphate dehydrogenase/glucose 1-dehydrogenase) gave mean correlation with KSR1 profile 0.3; mean distance from KSR1 profile 2.04.
Against PDIA4 (protein disulfide isomerase family A member 4), the entry reads mean correlation with KSR1 profile -0.0173; mean distance from KSR1 profile 4.84.
F2RL1 (F2R like trypsin receptor 1) scored mean correlation with KSR1 profile 0.653; mean distance from KSR1 profile 1.61.
Silencing of LINC00312 (long independently transcribed non-coding RNA 312) resulted in: mean correlation with KSR1 profile 0.22; mean distance from KSR1 profile 1.49.
METTL17 (methyltransferase like 17) scored mean correlation with KSR1 profile -0.472; mean distance from KSR1 profile 1.51.
After knock-down of METTL5 (methyltransferase 5, N6-adenosine) the results were mean correlation with KSR1 profile 0.185; mean distance from KSR1 profile 1.84.
PCDHAC2 (protocadherin alpha subfamily C, 2) gave mean correlation with KSR1 profile 0.152; mean distance from KSR1 profile 1.86.
Depletion of GJA1 (gap junction protein alpha 1) gave: mean correlation with KSR1 profile -0.579; mean distance from KSR1 profile 2.4.
Against ANKRD40CL (ANKRD40 C-terminal like) the deposit lists mean correlation with KSR1 profile -0.309; mean distance from KSR1 profile 5.51.
DPY30 (dpy-30 histone methyltransferase complex regulatory subunit) gave mean correlation with KSR1 profile 0.241; mean distance from KSR1 profile 1.64.
After knock-down of FGF9 (fibroblast growth factor 9) the results were mean correlation with KSR1 profile 0.84; mean distance from KSR1 profile 0.535.
SLC4A2 scored mean correlation with KSR1 profile 0.12; mean distance from KSR1 profile 1.64.
WDR13 (WD repeat domain 13) showed mean correlation with KSR1 profile 0.165; mean distance from KSR1 profile 4.65.
Against NRIP2 (nuclear receptor interacting protein 2) the deposit lists mean correlation with KSR1 profile 0.674; mean distance from KSR1 profile 1.99.
Silencing of ODC1 (ornithine decarboxylase 1) gave: mean correlation with KSR1 profile 0.25; mean distance from KSR1 profile 1.98.
With knock-down of SELPLG (selectin P ligand), the record shows mean correlation with KSR1 profile -0.41; mean distance from KSR1 profile 2.3.
C14orf119 (chromosome 14 open reading frame 119) gave mean correlation with KSR1 profile -0.644; mean distance from KSR1 profile 7.13.
With knock-down of LAMA4 (laminin subunit alpha 4), the screen gave mean correlation with KSR1 profile -0.183; mean distance from KSR1 profile 4.81.
Against WWOX (WW domain containing oxidoreductase), the values are mean correlation with KSR1 profile 0.165; mean distance from KSR1 profile 1.07.
Against TMUB1 (transmembrane and ubiquitin like domain containing 1) the deposit lists mean correlation with KSR1 profile 0.448; mean distance from KSR1 profile 3.74.
Depletion of SPA17 (sperm autoantigenic protein 17) came out at: mean correlation with KSR1 profile -0.456; mean distance from KSR1 profile 3.18.
CCDC93 (CCC complex scaffolding subunit CCDC93) scored mean correlation with KSR1 profile -0.324; mean distance from KSR1 profile 4.08.
Silencing of RAB11FIP2 (RAB11 family interacting protein 2) resulted in: mean correlation with KSR1 profile -0.252; mean distance from KSR1 profile 3.18.
AGPAT1 (1-acylglycerol-3-phosphate O-acyltransferase 1) scored mean correlation with KSR1 profile 0.449; mean distance from KSR1 profile 2.13.
ATM (ATM serine/threonine kinase) scored mean correlation with KSR1 profile 0.645; mean distance from KSR1 profile 1.35.
